± gives the standard deviation. This is a selection; strong and weak results do not stand in their true shares. Many entries were measured with a wide error.

The first test relates to MIWI (PIWIL1) piRISC loaded with L1MC piRNA (30 nt). Kind of test: pre-steady-state target cleavage rate (min^-1); higher = faster piRNA-guided slicing of the target. Conditions: guide: L1MC piRNA 5'p-UAACUAAAUACUAUGCAAGCUGUAGGUCCU; auxiliary factor: none (no GTSF1). In short, it runs like this: (§1)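 With or without 500 nM GTSF1 partner protein, 1 nM active affinity-purified piRISC carrying one synthetic guide was mixed with 0.1 nM transcribed, DNA-blocked target RNA library in HEPES–potassium acetate buffer at 33 °C for 0–8 or 0–960 min. Uncleaved targets were sequenced and normalised to depth and to weakly complementary targets, three trials were pooled, and k3 was capped at 0.0001 min^-1. The pre-steady-state cleavage rate came from a burst-and-steady-state fit.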
As for UCCACCUACAGCUUGCAUAGUAUUAAGAAA, the “pre-steady-state target cleavage rate” value was found to be 0.00164 ± 0.0047. As to UCCUGGAUGUCGAUGCAUAGUUAUUUAGUUA, the “pre-steady-state target cleavage rate” value amounted to 0.000793 ± 0.0084.

Regarding UCGACCUACACGAUGCAUAGUAUUUACAAA, the “pre-steady-state target cleavage rate” value was determined as 0.000817 ± 0.0096. For the sequence UGGUGGUACAGCUUGCAUAGUAUUUUCAAA, the “pre-steady-state target cleavage rate” value was 0.00189 ± 0.0034. AGGACCUACAGCUUGCAUAGAAUUUUCAAA: the “pre-steady-state target cleavage rate” value is 0.00162 ± 0.0058. Still for that read-out and setting: the result for AGGACCUACAGCUUGGUAAGUAUUUAGUAA reads 0.00109 ± 0.0084; that for UCGACCUACAGCUUCCAUAGUAUUUACAAA, 0.000697 ± 0.0077; that for UCGACCUACAGCUUCCAUAGUAUUUAGAAA, 0.000468 ± 0.0088. As for “AGGACCUACAGCUUGCAUAGUUAAAUCAAA [g10:g30:cont:t1A]”, the “pre-steady-state target cleavage rate” value was determined as 0.00113 ± 0.0073. Still for that read-out and setting: with AGGACCUACAGCUUCCAUACUAUUUAGUUA the figure was 0.00112 ± 0.005; with UGGACCUACAGCUACGAUAGUAUUUAGUUA, 0.000742 ± 0.0061. Same read-out and setting: with AGGACCUACAGCUUCCAUAGUAUAUAGUUA the figure was 0.00131 ± 0.0053. Same read-out and setting: with UGGACCUACAGCUUCCAUAGUUUUUAGUUA the figure was 0.00169 ± 0.0021.

The subject of the next test is EfPiwi piRISC loaded with piRNA #1 (26 nt). Put plainly: pre-steady-state target cleavage rate (min^-1); guide: piRNA #1 5'p-UGAGGUAGUAGGUUGUAUAGUAUCCA; MIWI and MILI are mouse PIWI proteins and EfPiwi is from a freshwater sponge; tags in brackets are library labels; higher = faster piRNA-guided slicing of the target. The note with it: auxiliary factor: 500 nM Ephydatia muelleri Gtsf1. Put shortly: as §1
Regarding GGAGACCUAUCUAUACAACCUACUAACUCA, the “pre-steady-state target cleavage rate” value stood at 0.00341 ± 0.0046. For the sequence GGAGACGAUACUAAACUACCUACUACCUCA, the “pre-steady-state target cleavage rate” value stood at 0.00228 ± 0.0021. GGAGACCAUACUAUACAACCUACUAGGACA: the “pre-steady-state target cleavage rate” value amounted to 0.00202 ± 0.0053. For the sequence GGAGACCUAACUAAUACAACCUACUACCUCA, the “pre-steady-state target cleavage rate” value is 0.0103 ± 0.0044. On to GGAGACCUAUGAUUAGAACGUACUACCUCA, for which the “pre-steady-state target cleavage rate” value came to 0.000561 ± 0.0096. As for GGAGACCUAUGAAUAGAACCUUCUACCUCA, the “pre-steady-state target cleavage rate” value is less than 0.0001. As to GGAGACCUAUCUAUACAAACUACUACCUCA, the “pre-steady-state target cleavage rate” value amounted to 0.00405 ± 0.005.

As for GGAGACCUUACUAUACAACCUAGUAGCUCA, the “pre-steady-state target cleavage rate” value is 0.00206 ± 0.0027. For the sequence GGAGUGGAUAGAAUACAACCUACUACCUCA, the “pre-steady-state target cleavage rate” value stood at 0.0062 ± 0.0044.

As to GGAGACCUAUCUAUACAACCUUCUACCUGA, the “pre-steady-state target cleavage rate” value came to 0.00288 ± 0.005.

Take GGAGACCAUACUAUACAUCCUACUACCUCA: the “pre-steady-state target cleavage rate” value turned out to be 0.00918 ± 0.0027. Turning to GGAGACCUAUCUAUACAACCUACUAGGACA, the “pre-steady-state target cleavage rate” value worked out at 0.000517 ± 0.0094. The same measure, in the same setting: the result for GGAGACCUUAGUAUACAACCUACUACGUCA reads 0.00245 ± 0.0035. GGAGAGGAUACUAUACAUGGUACUACCUCA: the “pre-steady-state target cleavage rate” value was determined as 0.00195 ± 0.0028.

With GGAGUCGAUACUAUACAACCUUCUACCUCA, the “pre-steady-state target cleavage rate” value is 0.00622 ± 0.0028. Regarding GGAGACCUAACUAUACAAGCUACUACCACA, the “pre-steady-state target cleavage rate” value came to 0.00316 ± 0.0044. For GGAGACCUUACUAUACAACCUACUACCUUA, the “pre-steady-state target cleavage rate” value worked out at 0.0898 ± 0.034.

In the case of GGAGACCUUACUAUACAACCAACUACCUGA, the “pre-steady-state target cleavage rate” value was determined as 0.00356 ± 0.004.

On to GGAGACCUAUGAUAAGAACCUAGUACCUCA, for which the “pre-steady-state target cleavage rate” value was 0.000182 ± 0.017. For GGAGACGAUACUAAACAUCCUACUACCUCA, the “pre-steady-state target cleavage rate” value worked out at 0.00359 ± 0.0026. Take GGAGACCUAUCUAUACAACGUAGUACCUCA: the “pre-steady-state target cleavage rate” value was 0.000874 ± 0.0066. With GGAGACCUAACUAUAGAACCUACAACCUCA, the “pre-steady-state target cleavage rate” value came to 0.000925 ± 0.0098. In the case of GGAGACCUAACUAUAGAACCAACUACCUCA, the “pre-steady-state target cleavage rate” value is 0.000489 ± 0.016. As for GGAGACCAUACUAUACAACCUACAACCUGA, the “pre-steady-state target cleavage rate” value turned out to be 0.00439 ± 0.0042.

As to GGAGACCUAUGAUUACAACCUAGUAGCUCA, the “pre-steady-state target cleavage rate” value was 0.00233 ± 0.0048.
